# Laboratory results published in PubChem BioAssay AID2685 (National Center for Advancing Translational Sciences (NCATS), 2010).
# About 2,100 (0.66%) of roughly 320,000 compounds were called active. Inconclusive results, whose numbers are uncertain, are shown with a selection of clear calls. Calls follow the shape of the dose curve; as a rule, active = well fitted inhibition curve with a large enough effect in the signal ratio, with a control signal flat (not every such curve was filed as active); inconclusive = small, poorly fitted or top-dose-only effect, or effect the other way, or a change in a side signal; inactive = flat fitted curve, though single readings scatter; the % refers to the signal ratio. A potency beside an inconclusive call is a rough fit, not a confirmed value.
# Assay: qHTS Assay for Lipid Storage Modulators in Drosophila S3 Cells
# Details: BODIPY lipid droplet fluorescence, 18-24 h, cells fed with added oleic acid; lipid storage change, negative = inhibition: at 46.1 µM (top of the series) unless noted
# How it was run: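 Drosophila S3 cells got compounds at several concentrations plus oleic acid (400 uM solution). Laser-scanning cytometry with 488 nm excitation read lipid droplets at 500-530 nm and cells at 575-640 nm. Percent activity was relative to 20 uM Triacsin C.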
# % is scaled to controls: 0 for no effect and ±100 for the full control effect; potency is read from the fitted curve at half-maximal effect.
Compound,"lipid storage change, negative = inhibition",Potency
O=C(CCCn1c(=O)[nH]c2ccc(Br)cc2c1=O)NCc1ccc(Cl)cc1,inconclusive: 1.98%,
Cc1c(C(=O)NCCCN2CCOCC2)oc2ccc(S(=O)(=O)N3CCOCC3)cc12,inactive,
COc1ccc(N(C)S(=O)(=O)c2cccc(C(=O)Nc3cccc(C(=O)NC4CC4)c3)c2)cc1,inconclusive: 6.56%,
CCCCN(C)C(=O)c1cc2cc3cc(OC)ccc3nc2o1,inconclusive: -16.6%,
O=S1(=O)CCO[C@H]2Cc3ccccc3[C@H]2N1Cc1cccc(F)c1,,"inconclusive: 29.1 µM [activator, single point]"
Cc1cc(C(=O)NC2CCN(Cc3ccccc3)CC2)n[nH]1,inconclusive: 37.2%,
COc1ccc(-c2nc(CS(=O)CC(=O)NCCc3ccc(OC)c(OC)c3)c(C)o2)cc1 (stereo unspecified),inconclusive: -10.7%,
O=S(=O)(Nc1ccc(-c2ccc3nncn3n2)cc1)c1cc(F)ccc1F,inconclusive,
O=C(O)CCC(=O)Nc1ccccc1Oc1ccccc1,inconclusive: -43.2% [cytotoxic] [at 0.00295 µM],
COc1ccc(N(CC(=O)NCCc2ccc(OC)c(OC)c2)S(=O)(=O)c2c(C)noc2C)cc1,,"inconclusive: 0.58 µM [activator, single point]"
CCC1CCCCN1C(=S)NC1CCCCC1 (stereo unspecified),inconclusive: -68.2%,
Cc1oc(C(=O)O)cc1COc1ccccc1Cl,inconclusive: 2.55%,
COc1ccc(N(C(=O)c2cccnc2)S(=O)(=O)c2ccc(OC)c(OC)c2)cc1,inconclusive: 29%,
O=C(O)CCCC(=O)N1CC(=O)Nc2ccccc21,inconclusive: 61.6%,
COc1ccccc1NS(=O)(=O)c1ccc2oc(N)nc2c1,,"inconclusive: 25.9 µM [activator, single point]"
O=C(NNc1ccc([N+](=O)[O-])cc1)Nc1ccccc1,inconclusive: 6.32%,
O=c1oc2cc(Br)ccc2n1Cc1ccccc1,inconclusive: 3.79%,
CCOc1ccccc1Oc1coc2cc(OC(=O)c3ccco3)ccc2c1=O,,"inconclusive: 2.31 µM [falling, partial curve, poor fit]"
CC(=O)Nc1ccc(S(=O)(=O)N2CCN(C(=O)c3ncoc3-c3ccc(C)cc3)CC2)cc1,,"inconclusive: 6.51 µM [activator, single point]"
N#Cc1ccc(C(=O)OCC(=O)Nc2ccc(N3CCOCC3)cc2)cc1,,"inconclusive: 0.82 µM [falling, single point]"
Fc1ccc2c(c1)C(c1cccnc1)=NNC(c1cccs1)=N2,inconclusive: 25%,

# Copied from the list:
# lipid storage change, negative = inhibition with `O=S(=O)(Nc1ccc(-c2ccc3nncn3n2)cc1)c1cc(F)ccc1F` reads inconclusive
# lipid storage change, negative = inhibition with `Fc1ccc2c(c1)C(c1cccnc1)=NNC(c1cccs1)=N2` reads inconclusive: 25%
